The list shows a part of the results.

The chains behind the UniProt entries cited, without tags or fusion partners. Where a name states a change or a piece, a line headed by the entry shows the natural chain unless it says otherwise.
UniProt Q96G28: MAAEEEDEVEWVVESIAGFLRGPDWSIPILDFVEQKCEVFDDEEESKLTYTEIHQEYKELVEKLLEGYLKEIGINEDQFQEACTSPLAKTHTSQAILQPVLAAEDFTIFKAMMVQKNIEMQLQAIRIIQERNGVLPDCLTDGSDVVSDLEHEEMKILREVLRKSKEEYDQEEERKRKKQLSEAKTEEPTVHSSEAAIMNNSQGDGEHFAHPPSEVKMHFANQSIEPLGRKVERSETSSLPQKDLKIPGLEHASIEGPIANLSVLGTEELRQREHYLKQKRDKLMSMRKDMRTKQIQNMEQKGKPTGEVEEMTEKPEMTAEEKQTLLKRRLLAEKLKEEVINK
UniProt Q5SW79: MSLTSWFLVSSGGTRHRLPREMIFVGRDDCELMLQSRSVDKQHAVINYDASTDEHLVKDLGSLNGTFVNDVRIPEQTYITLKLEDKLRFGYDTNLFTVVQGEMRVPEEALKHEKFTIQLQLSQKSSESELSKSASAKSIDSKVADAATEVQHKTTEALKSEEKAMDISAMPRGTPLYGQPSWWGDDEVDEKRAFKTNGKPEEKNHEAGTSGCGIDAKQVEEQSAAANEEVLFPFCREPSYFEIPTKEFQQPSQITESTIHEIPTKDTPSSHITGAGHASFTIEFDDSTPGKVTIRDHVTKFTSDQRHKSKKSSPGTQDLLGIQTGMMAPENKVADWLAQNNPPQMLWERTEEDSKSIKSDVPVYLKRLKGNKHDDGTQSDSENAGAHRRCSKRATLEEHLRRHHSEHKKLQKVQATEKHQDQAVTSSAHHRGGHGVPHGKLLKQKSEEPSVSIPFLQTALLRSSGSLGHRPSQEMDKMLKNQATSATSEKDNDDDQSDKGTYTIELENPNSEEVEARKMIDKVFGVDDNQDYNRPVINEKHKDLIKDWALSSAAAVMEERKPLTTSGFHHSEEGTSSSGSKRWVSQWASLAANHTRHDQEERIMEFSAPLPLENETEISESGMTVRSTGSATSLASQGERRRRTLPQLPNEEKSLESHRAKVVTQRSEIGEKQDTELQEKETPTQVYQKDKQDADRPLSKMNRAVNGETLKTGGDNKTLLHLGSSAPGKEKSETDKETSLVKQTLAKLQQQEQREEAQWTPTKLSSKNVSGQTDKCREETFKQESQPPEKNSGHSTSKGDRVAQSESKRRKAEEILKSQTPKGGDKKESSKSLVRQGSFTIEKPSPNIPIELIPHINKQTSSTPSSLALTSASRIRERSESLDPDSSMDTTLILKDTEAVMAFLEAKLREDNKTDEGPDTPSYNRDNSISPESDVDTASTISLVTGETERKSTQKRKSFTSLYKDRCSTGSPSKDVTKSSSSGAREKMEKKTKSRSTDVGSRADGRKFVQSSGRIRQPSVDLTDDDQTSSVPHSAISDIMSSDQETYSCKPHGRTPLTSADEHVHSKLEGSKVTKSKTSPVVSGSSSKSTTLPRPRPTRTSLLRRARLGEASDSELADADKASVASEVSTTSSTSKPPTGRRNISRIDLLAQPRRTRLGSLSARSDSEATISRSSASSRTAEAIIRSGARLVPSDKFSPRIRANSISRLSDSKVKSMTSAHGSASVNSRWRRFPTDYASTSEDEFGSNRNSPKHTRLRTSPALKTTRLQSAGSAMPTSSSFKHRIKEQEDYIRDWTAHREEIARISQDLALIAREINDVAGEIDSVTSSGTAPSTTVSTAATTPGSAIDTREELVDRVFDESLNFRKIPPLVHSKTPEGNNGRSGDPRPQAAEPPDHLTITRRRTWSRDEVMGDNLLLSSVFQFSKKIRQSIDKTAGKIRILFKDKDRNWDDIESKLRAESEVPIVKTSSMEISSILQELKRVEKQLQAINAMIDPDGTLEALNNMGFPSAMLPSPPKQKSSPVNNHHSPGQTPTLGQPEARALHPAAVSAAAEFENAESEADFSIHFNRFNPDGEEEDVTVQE
UniProt P11802: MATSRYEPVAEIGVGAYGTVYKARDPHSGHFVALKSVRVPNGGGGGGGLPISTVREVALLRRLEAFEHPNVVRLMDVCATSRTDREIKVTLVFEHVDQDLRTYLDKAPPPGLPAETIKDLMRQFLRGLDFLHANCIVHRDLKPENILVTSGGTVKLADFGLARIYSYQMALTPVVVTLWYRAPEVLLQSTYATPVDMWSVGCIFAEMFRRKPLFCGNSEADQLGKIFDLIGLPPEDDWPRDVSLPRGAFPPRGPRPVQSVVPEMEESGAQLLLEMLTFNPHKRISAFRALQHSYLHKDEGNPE
UniProt Q9NRR3: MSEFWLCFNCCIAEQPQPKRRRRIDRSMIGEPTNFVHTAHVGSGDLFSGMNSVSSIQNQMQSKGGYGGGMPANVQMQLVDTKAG
UniProt Q5VV42: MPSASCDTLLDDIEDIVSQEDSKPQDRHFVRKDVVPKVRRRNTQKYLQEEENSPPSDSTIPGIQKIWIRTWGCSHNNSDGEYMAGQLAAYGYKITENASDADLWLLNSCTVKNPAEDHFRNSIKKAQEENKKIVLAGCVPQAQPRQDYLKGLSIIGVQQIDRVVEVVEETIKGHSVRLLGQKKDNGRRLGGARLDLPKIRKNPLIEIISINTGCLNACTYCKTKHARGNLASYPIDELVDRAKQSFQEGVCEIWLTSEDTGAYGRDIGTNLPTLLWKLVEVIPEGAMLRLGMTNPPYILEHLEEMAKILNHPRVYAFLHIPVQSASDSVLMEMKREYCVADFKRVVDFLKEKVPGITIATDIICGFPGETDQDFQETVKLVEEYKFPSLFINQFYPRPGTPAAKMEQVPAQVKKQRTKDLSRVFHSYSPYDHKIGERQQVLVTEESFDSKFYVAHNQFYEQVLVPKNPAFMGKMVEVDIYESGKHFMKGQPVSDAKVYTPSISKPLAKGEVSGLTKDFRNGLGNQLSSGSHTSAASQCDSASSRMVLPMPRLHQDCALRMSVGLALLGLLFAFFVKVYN
UniProt Q5VXU3: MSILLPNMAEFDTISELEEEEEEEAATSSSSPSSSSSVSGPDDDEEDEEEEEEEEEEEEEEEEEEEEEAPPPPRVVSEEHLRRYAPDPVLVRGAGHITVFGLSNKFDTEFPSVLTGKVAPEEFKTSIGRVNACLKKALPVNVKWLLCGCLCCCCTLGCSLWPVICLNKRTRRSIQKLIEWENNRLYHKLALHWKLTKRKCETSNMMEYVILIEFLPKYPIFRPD
UniProt Q9BWS9: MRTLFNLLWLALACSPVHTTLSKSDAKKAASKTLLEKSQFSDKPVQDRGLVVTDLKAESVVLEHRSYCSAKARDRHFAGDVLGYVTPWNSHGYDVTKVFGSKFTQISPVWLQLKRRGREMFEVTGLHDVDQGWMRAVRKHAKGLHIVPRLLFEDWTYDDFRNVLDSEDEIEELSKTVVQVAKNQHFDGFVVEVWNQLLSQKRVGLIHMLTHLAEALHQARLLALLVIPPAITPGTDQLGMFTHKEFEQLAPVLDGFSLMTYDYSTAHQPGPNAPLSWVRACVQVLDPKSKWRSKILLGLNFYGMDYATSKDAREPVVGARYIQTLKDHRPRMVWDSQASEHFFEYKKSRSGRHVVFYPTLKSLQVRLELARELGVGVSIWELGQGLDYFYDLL
UniProt Q9NRR8: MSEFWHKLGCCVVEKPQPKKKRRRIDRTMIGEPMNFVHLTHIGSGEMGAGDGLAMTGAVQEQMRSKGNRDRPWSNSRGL
UniProt Q13111, whole entry, looked up: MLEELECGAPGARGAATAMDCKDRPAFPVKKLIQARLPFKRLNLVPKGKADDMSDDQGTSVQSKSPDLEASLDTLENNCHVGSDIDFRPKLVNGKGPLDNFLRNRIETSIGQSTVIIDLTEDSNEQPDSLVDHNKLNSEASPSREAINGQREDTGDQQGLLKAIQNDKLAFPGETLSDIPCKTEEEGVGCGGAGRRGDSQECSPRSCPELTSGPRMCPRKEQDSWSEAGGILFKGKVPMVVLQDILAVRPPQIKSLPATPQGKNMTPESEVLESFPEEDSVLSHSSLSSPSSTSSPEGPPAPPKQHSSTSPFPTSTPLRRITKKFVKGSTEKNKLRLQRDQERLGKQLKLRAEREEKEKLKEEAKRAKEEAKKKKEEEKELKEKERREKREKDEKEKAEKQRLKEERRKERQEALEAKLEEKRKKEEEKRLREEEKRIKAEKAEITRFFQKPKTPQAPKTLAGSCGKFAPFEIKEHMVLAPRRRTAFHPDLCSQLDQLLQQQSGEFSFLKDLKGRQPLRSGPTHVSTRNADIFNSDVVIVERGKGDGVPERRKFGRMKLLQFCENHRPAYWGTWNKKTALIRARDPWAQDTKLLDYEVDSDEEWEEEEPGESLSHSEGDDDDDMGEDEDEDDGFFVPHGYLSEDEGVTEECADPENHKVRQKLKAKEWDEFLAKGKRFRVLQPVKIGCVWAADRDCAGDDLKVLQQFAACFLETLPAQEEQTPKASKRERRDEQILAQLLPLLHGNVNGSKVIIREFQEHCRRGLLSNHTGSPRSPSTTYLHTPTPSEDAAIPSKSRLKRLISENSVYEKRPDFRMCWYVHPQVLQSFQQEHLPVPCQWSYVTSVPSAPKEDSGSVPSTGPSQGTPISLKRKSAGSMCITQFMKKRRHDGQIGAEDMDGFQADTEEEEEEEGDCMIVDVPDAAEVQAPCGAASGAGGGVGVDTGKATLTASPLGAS
UniProt P26374: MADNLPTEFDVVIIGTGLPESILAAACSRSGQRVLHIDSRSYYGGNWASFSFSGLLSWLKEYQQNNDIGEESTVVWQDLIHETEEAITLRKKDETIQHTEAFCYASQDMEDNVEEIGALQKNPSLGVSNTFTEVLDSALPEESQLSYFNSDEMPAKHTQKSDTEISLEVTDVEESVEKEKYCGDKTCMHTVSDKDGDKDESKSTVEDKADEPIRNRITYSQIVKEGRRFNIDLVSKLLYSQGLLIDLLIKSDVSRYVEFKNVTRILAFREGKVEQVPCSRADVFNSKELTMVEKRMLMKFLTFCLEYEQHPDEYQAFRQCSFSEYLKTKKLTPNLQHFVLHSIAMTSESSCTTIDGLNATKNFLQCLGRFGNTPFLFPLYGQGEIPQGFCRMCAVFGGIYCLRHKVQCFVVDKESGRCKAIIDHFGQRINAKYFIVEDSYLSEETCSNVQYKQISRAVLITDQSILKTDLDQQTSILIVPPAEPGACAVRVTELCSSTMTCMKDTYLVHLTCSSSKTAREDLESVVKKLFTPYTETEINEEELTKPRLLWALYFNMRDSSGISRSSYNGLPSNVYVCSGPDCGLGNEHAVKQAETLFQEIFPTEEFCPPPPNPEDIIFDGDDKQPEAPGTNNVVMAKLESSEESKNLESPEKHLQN
UniProt Q9BU64: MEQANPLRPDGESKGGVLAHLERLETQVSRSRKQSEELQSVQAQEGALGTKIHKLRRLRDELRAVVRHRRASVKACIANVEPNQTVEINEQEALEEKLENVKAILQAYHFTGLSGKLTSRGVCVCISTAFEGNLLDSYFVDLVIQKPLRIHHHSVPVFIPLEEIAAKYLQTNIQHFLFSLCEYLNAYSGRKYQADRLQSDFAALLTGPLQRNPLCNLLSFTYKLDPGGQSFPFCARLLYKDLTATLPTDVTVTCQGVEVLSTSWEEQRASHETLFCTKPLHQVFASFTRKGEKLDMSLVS
UniProt Q9H3R5: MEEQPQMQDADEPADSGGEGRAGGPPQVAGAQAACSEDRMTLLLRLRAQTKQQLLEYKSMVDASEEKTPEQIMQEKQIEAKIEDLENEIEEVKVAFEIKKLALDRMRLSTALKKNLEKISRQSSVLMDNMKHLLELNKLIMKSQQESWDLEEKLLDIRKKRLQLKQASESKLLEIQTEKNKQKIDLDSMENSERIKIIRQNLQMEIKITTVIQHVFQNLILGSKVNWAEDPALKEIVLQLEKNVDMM
UniProt O14519: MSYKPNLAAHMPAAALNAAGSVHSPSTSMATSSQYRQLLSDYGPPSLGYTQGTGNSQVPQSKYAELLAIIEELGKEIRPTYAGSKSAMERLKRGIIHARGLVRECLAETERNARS
UniProt Q9H3Q1: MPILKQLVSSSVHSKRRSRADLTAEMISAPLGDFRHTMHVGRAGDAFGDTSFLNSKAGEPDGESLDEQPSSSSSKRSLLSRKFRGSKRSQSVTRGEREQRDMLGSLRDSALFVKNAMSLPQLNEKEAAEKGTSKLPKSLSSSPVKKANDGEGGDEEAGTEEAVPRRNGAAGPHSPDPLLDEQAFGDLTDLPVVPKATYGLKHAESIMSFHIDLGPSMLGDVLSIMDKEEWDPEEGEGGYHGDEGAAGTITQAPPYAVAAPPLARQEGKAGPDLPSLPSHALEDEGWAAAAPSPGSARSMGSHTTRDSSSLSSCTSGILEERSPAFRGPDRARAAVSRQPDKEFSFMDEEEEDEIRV
UniProt P49918: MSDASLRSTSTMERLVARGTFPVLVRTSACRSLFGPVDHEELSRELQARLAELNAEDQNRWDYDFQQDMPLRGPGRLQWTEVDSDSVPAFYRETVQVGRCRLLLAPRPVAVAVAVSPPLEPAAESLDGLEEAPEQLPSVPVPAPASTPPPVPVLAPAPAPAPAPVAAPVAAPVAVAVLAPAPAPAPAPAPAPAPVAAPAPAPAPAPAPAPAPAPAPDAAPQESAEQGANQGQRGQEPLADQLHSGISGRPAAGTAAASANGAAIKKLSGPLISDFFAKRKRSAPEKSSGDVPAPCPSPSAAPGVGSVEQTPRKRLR

Compound in one experiment: O=C(O)c1ccc2c(c1)nc(Nc1cccc(Cl)c1)c1ccncc12 [silmitasertib]
Description: log2 fold change, soluble protein after heating vs DMSO (PISA); higher = thermal stabilisation; K562 cells, 10 uM, 30 min; active = over 0.2 and 3.5 SD of the protein, either way, in both replicates (recomputed). A digest of the protocol: (§1)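 K562 cells (2×10^6 cells/mL) were treated with 10 μM compound for 30 min, and aliquots were heated for 3 min over 48°C-58°C. Pooled aliquots were extracted in PBS with 0.5% NP-40 at 4°C, and the supernatant after 21,000xg for 90 min was measured by TMTpro 16plex LC-MS/MS with channel sums equalised. Reported thermal stability, relative to control samples and from duplicates, is a log2 fold change.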
On to CFAP36 isoform 2 (UniProt Q96G28), for which the log2 fold change is inactive: 0.131.

Turning to CEP120 (UniProt Q8N960), the log2 fold change is inactive: -0.008.

As for CEP170 (UniProt Q5SW79), the log2 fold change was inactive: -0.024.

For CDC5L (UniProt Q99459), the log2 fold change was inactive: 0.104.

For the target CDKN2C (UniProt P42773), the log2 fold change is inactive: -0.004.

For the target CDK4 (UniProt P11802), the log2 fold change is inactive: 0.193.

For the target CDC42SE2 (UniProt Q9NRR3), the log2 fold change is inactive: -0.123.

On to CEP128 (UniProt Q6ZU80), for which the log2 fold change is inactive: -0.191.

CEP57 (UniProt Q86XR8): the log2 fold change was inactive: 0.343.

CDKAL1 (UniProt Q5VV42): the log2 fold change is inactive: 0.014.

On to CHIC1 (UniProt Q5VXU3), for which the log2 fold change was inactive: 0.15.

Regarding CEP350 (UniProt Q5VT06), the log2 fold change is inactive: 0.099.

For CEP131 (UniProt Q9UPN4), the log2 fold change is inactive: -0.227.

Consider CEBPZ (UniProt Q03701), for which the log2 fold change is inactive: -0.125.

Turning to CHID1 (UniProt Q9BWS9), the log2 fold change is inactive: 0.001.

For CDC42SE1 (UniProt Q9NRR8), the log2 fold change was inactive: 0.128.

Take CHAF1A (UniProt Q13111): the log2 fold change is inactive: -0.019.

Take CHML (UniProt P26374): the log2 fold change is inactive: 0.007.

CEP250 (UniProt Q9BV73): the log2 fold change is inactive: -0.048.

With CENPO (UniProt Q9BU64), the log2 fold change was inactive: 0.177.

Consider CENPH (UniProt Q9H3R5), for which the log2 fold change is inactive: -0.082.

With CHMP4B (UniProt Q9H444), the log2 fold change was inactive: -0.016.

Take CHCHD6 (UniProt Q9BRQ6): the log2 fold change was inactive: -0.033.

As to CFB (UniProt P00751), the log2 fold change is inactive: 0.101.

With CDK2AP1 (UniProt O14519), the log2 fold change was inactive: -0.037.

CEP152 (UniProt O94986): the log2 fold change was inactive: -0.02.

Regarding CHCHD7 isoform 4 (UniProt Q9BUK0), the log2 fold change is inactive: -0.068.

With CDC42EP4 (UniProt Q9H3Q1), the log2 fold change was inactive: 0.009.

Take CDKN1C (UniProt P49918): the log2 fold change is inactive: 0.322.

Consider CDKN1B (UniProt P46527), for which the log2 fold change is inactive: -0.072.

Compound in another experiment: O=C1NC(=O)C(c2cnc3ccccn23)=C1c1cn2c3c(cc(F)cc13)CN(C(=O)N1CCCCC1)CC2
Described as above. Put shortly:
as §1
Consider CEP97 isoform 2 (UniProt Q8IW35), for which the log2 fold change is inactive: 0.099.

CEP135 (UniProt Q66GS9): the log2 fold change was inactive: 0.01.

In the case of CFAP36 isoform 2 (UniProt Q96G28), the log2 fold change is inactive: -0.025.

With CEP120 (UniProt Q8N960), the log2 fold change was inactive: -0.162.

CEP170 (UniProt Q5SW79): the log2 fold change was inactive: 0.167.

Take CDK4 (UniProt P11802): the log2 fold change is inactive: 0.184.

Take CDC42SE2 (UniProt Q9NRR3): the log2 fold change is inactive: -0.038.

Take CDC45 isoform 3 (UniProt O75419): the log2 fold change is inactive: 0.024.

For the target CFAP97 (UniProt Q9P2B7), the log2 fold change was inactive: 0.046.

Regarding CENPJ (UniProt Q9HC77), the log2 fold change was inactive: -0.055.

As for CDKAL1 (UniProt Q5VV42), the log2 fold change was inactive: 0.077.

CHIC1 (UniProt Q5VXU3): the log2 fold change is inactive: 0.026.

For CEP350 (UniProt Q5VT06), the log2 fold change is inactive: 0.166.

CEP131 (UniProt Q9UPN4): the log2 fold change was inactive: 0.176.

With CHID1 (UniProt Q9BWS9), the log2 fold change is inactive: -0.008.

Consider CDC42SE1 (UniProt Q9NRR8), for which the log2 fold change is inactive: -0.065.

Regarding CDK1 (UniProt P06493), the log2 fold change was inactive: -0.079.

In the case of CHAF1A (UniProt Q13111), the log2 fold change is inactive: -0.167.

As for CHML (UniProt P26374), the log2 fold change was inactive: -0.092.

In the case of CEP250 (UniProt Q9BV73), the log2 fold change is inactive: 0.049.

Take CENPO (UniProt Q9BU64): the log2 fold change was inactive: -0.075.

Regarding CENPH (UniProt Q9H3R5), the log2 fold change was inactive: 0.014.

For CHMP4B (UniProt Q9H444), the log2 fold change is inactive: 0.014.

For CENPU (UniProt Q71F23), the log2 fold change was inactive: 0.097.

As to CHCHD6 (UniProt Q9BRQ6), the log2 fold change is inactive: -0.128.

Turning to CDK2AP1 (UniProt O14519), the log2 fold change is inactive: -0.008.

On to CDC42EP4 (UniProt Q9H3Q1), for which the log2 fold change is inactive: 0.075.

In the case of CDKN1C (UniProt P49918), the log2 fold change was inactive: -0.41.

On to CDKN1B (UniProt P46527), for which the log2 fold change is inactive: -0.01.

Compound in another experiment: c1cc(OCCN2CCCCC2)cc(-c2n[nH]c3ccc(-c4nnc[nH]4)cc23)c1
Described as above. Put shortly:
as §1
As to CEP97 isoform 2 (UniProt Q8IW35), the log2 fold change was inactive: 0.032.

With CEP135 (UniProt Q66GS9), the log2 fold change is inactive: 0.192.

For CFAP36 isoform 2 (UniProt Q96G28), the log2 fold change is inactive: 0.065.

Take CEP170 (UniProt Q5SW79): the log2 fold change is inactive: -0.173.

Take CDC5L (UniProt Q99459): the log2 fold change was inactive: -0.098.

As for CDKN2C (UniProt P42773), the log2 fold change is inactive: -0.001.

Consider CDK4 (UniProt P11802), for which the log2 fold change was inactive: 0.005.

Consider CDC42SE2 (UniProt Q9NRR3), for which the log2 fold change was inactive: -0.03.

Consider CDC45 isoform 3 (UniProt O75419), for which the log2 fold change is inactive: -0.377.

As to CEP128 (UniProt Q6ZU80), the log2 fold change was inactive: -0.068.

As to CDKAL1 (UniProt Q5VV42), the log2 fold change is inactive: -0.051.

In the case of CHIC1 (UniProt Q5VXU3), the log2 fold change is inactive: -0.032.

In the case of CEP350 (UniProt Q5VT06), the log2 fold change was inactive: -0.147.

Take CHID1 (UniProt Q9BWS9): the log2 fold change is inactive: 0.001.

Regarding CDC42SE1 (UniProt Q9NRR8), the log2 fold change was inactive: -0.103.

On to CDK1 (UniProt P06493), for which the log2 fold change was inactive: -0.032.

With CHAF1A (UniProt Q13111), the log2 fold change is active: -0.439.

Regarding CHML (UniProt P26374), the log2 fold change was inactive: 0.013.

In the case of CEP250 (UniProt Q9BV73), the log2 fold change was inactive: -0.329.

CENPO (UniProt Q9BU64): the log2 fold change is inactive: -0.077.

CENPH (UniProt Q9H3R5): the log2 fold change is inactive: -0.299.

On to CHMP4B (UniProt Q9H444), for which the log2 fold change is inactive: 0.022.

Turning to CFB (UniProt P00751), the log2 fold change was inactive: 0.696.

As to CDK2AP1 (UniProt O14519), the log2 fold change is inactive: 0.04.

Consider CEP152 (UniProt O94986), for which the log2 fold change is inactive: 0.083.

In the case of CHCHD7 isoform 4 (UniProt Q9BUK0), the log2 fold change was inactive: -0.101.

As for CDC42EP4 (UniProt Q9H3Q1), the log2 fold change is inactive: -0.078.

For the target CDKN1C (UniProt P49918), the log2 fold change was inactive: 0.461.

Source of the values: the supplement of paper PMC10849652.
